# Experimental data taken from patent US6653442B1, “Protegrins” (priority 1993, dated 2003).
# Some results were stated once for a whole list of compounds, not compound by compound.
# Tested on: N. gonorrhoeae strains FA 19 and F 62
# Conditions: 45 minutes at 37° C.
substance,measurement,value
R-G-G-R-L-C-Y-C-R-R-R-F-C-V-C-V-G-R (all †) (RGGRLCYCRRRFCVCVGR; all D-amino acids) [enantioPG-1],log reduction in CFU per ml,> 5 log
